Measurements reported in PubChem BioAssay AID1224830 (NIAID, 2016).
Assay: 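Host factors that control LPS-induced TNF expression in human macrophages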 (primary screen). Cell system: human THP-1 monocytic leukaemia cells, TNF dual-luciferase reporter clone, PMA-differentiated to macrophage-like cells. Reagent: siRNA pool against human genes, 50 nM. Timing: LPS for 4 h, given about 3 days after siRNA transfection. Challenge: bacterial LPS (TLR4 ligand), 10 ng/ml. Read-out: 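TNF firefly reporter luminescence divided by renilla, normalised to the plate median, then turned into a robust z-score for each replicate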. Scale: TNF reporter robust z-score: higher = stronger TNF reporter response to LPS. Hit rule: 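a well is active when its z-score exceeds 2.8 or falls below -1.5; control wells carry no call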.
Here is a random part of about 18,000 reagents tested. In the full data, about 2,900 (16%) are marked active. 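Calls are made per well; low scores hint the gene aids the LPS response, high scores that it dampens it.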 Repeated entries: four replicate wells of each siRNA pool. No sequences are given here.

BASP1 (brain abundant membrane attached signal protein 1) — TNF reporter robust z-score = 0.55; Outcome = inactive
BASP1 (brain abundant membrane attached signal protein 1) — TNF reporter robust z-score = 0.76; Outcome = inactive
BASP1 (brain abundant membrane attached signal protein 1) — TNF reporter robust z-score = -0.23; Outcome = inactive
BASP1 (brain abundant membrane attached signal protein 1) — TNF reporter robust z-score = 0.35; Outcome = inactive
ZNF589 (zinc finger protein 589) — TNF reporter robust z-score = -0.6; Outcome = inactive
ZNF589 (zinc finger protein 589) — TNF reporter robust z-score = -0.27; Outcome = inactive
ZNF589 (zinc finger protein 589) — TNF reporter robust z-score = 0.89; Outcome = inactive
ZNF589 (zinc finger protein 589) — TNF reporter robust z-score = -0.36; Outcome = inactive
ITK (IL2 inducible T cell kinase) — TNF reporter robust z-score = -0.61; Outcome = inactive
ITK (IL2 inducible T cell kinase) — TNF reporter robust z-score = -0.15; Outcome = inactive
ITK (IL2 inducible T cell kinase) — TNF reporter robust z-score = -0.87; Outcome = inactive
ITK (IL2 inducible T cell kinase) — TNF reporter robust z-score = -1.06; Outcome = inactive

A stretch taken from the entries so far:
ZNF589 (zinc finger protein 589) — TNF reporter robust z-score = -0.27; Outcome = inactive
ZNF589 (zinc finger protein 589) — TNF reporter robust z-score = 0.89; Outcome = inactive

Further reagents:
GAGE7 (G antigen 7) — TNF reporter robust z-score = 2.24; Outcome = inactive
GAGE7 (G antigen 7) — TNF reporter robust z-score = 1.24; Outcome = inactive
GAGE7 (G antigen 7) — TNF reporter robust z-score = 1.72; Outcome = inactive
GAGE7 (G antigen 7) — TNF reporter robust z-score = 2.31; Outcome = inactive
SLC14A2 — TNF reporter robust z-score = -0.34; Outcome = inactive
SLC14A2 — TNF reporter robust z-score = -0.13; Outcome = inactive
SLC14A2 — TNF reporter robust z-score = -0.05; Outcome = inactive
SLC14A2 — TNF reporter robust z-score = 0.48; Outcome = inactive
